Test results as given in patent US20060134737A1 (VLAAMS INTERUNIVERSITAIR INSTITUUT VOOR BIOTECHNOLOGIE VZW, published 2006).
These are yes or no findings as the source states them, for the method shown. Binding seen in cells or lysates may run through a third protein. Some binding calls cover weakened binding; strength is not graded here. Sequences can lack the tags named with a protein. Each block holds one substance with its values, some of them ahead of it.

Protein sequences, listed by entry. Tags and fused reporters are not part of them. Lines headed by an entry give the natural chain unless they say otherwise; changes in a name come on top. Chains listed by the source or under a name are the forms on record and can include a tag or linker.
UniProt Q9HAU4: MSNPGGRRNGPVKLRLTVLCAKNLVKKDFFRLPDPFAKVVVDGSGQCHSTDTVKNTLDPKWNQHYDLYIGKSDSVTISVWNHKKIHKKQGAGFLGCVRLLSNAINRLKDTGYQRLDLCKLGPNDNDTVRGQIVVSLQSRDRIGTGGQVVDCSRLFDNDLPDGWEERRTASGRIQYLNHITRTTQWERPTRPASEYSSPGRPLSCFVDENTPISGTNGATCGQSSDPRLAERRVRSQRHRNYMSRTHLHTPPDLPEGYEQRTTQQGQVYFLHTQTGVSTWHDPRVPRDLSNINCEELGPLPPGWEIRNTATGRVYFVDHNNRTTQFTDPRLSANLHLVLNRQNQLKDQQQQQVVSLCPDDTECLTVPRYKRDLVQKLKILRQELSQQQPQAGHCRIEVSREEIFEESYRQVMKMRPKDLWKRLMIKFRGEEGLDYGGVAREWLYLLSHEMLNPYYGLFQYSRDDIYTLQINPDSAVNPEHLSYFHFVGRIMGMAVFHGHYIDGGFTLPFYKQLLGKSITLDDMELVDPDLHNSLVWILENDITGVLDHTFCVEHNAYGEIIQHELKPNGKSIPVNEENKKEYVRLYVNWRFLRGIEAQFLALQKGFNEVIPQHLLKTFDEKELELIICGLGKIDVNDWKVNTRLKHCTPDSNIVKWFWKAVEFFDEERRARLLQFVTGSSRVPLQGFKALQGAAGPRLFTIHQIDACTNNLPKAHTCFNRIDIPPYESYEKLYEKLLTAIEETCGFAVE
Flag-tagged Smurf2 deletion mutant lacking the first WW domain (Q9HAU4, form named): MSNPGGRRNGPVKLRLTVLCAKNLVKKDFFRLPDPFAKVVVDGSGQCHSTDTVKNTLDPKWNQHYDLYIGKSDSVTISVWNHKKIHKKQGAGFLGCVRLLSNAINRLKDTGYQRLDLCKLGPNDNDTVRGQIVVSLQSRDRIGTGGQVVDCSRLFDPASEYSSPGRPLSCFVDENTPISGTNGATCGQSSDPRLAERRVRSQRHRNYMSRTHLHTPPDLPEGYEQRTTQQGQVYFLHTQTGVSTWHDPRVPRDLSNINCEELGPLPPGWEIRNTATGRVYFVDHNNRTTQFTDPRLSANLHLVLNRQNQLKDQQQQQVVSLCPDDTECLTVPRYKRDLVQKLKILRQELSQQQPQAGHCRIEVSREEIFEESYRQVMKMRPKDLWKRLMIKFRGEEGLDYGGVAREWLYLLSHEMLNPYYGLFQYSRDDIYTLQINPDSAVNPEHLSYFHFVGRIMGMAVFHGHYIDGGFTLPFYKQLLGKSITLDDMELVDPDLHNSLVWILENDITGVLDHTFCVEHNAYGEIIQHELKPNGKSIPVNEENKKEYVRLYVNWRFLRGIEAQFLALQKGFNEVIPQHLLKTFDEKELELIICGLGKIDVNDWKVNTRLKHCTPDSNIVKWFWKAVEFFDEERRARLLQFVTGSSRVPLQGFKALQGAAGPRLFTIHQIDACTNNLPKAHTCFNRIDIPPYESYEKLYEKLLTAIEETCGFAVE

Columns and labels:
[1] = target: T1, E-tagged murine TRAF2 (pEF6-E-mTRAF2) (murine) (UniProt P39429); assay: co-immunoprecipitation with anti-HA from HEK293T lysates, anti-E-tag Western blot
T1 sequence (looked up): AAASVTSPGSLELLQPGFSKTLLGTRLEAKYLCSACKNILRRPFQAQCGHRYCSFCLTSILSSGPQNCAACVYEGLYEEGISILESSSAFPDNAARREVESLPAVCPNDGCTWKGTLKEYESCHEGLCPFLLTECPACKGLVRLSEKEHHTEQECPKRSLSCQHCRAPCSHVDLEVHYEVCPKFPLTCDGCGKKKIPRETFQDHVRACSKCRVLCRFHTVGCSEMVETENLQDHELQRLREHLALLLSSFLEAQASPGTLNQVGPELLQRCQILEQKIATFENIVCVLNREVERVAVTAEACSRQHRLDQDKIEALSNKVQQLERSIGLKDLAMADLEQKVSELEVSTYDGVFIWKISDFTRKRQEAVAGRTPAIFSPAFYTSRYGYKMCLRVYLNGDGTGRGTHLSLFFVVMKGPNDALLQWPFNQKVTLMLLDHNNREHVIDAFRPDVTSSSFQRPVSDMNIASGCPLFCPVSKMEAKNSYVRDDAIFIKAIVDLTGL

[2] = target: T1, E-tagged murine TRAF2 (pEF6-E-mTRAF2) (murine); assay: co-immunoprecipitation with anti-HA from HEK293T lysates, anti-E-tag Western blot (FIG. 1, Panel B)
[3] = target: T1, E-tagged murine TRAF2 (pEF6-E-mTRAF2) (murine); assay: co-immunoprecipitation with anti-Flag from HEK293T lysates, anti-E-tag Western blot
[4] = target: T1, E-tagged murine TRAF2 (pEF6-E-mTRAF2) (murine); assay: co-immunoprecipitation of TNF-R2 with utr-1 from HEK293T lysates with 0, 0.25, 1 or 2 µg E-TRAF2 plasmid; anti-cMyc and anti-E Western blots
[5] = target: T1, E-tagged murine TRAF2 (pEF6-E-mTRAF2) (murine); assay: co-immunoprecipitation from HEK293T lysates

- binding [1]: binds
- binding [2]: binds
Substance: HA-tagged Smurf2 (full length, wild type) (from UniProt Q9HAU4 1-748) (enzyme)

- binding [3]: binds
Substance: Flag-tagged Smurf2 deletion mutant lacking the first WW domain (from UniProt Q9HAU4 1-748) (enzyme)

- binding [4]: binds
- binding [5]: binds
Substance: cMyc-tagged Smurf2 (C716G), ligase inactive point mutant (from UniProt Q9HAU4 1-748) (enzyme)
